Measured values published in paper PMC10433927.
Where two headings read alike, the source gives them in different places. Results are given in words; binding and its absence hold for the method and conditions named. Binding seen in cells or lysates may run through a third protein. These calls come from enrichment with a bait or labelling near it, and not all partners need be listed.

B1: ZmSGT1 (maize suppressor of G2 allele of skp1), endogenous (protein, UniProt A0A3L6DPG1 1-361)
chain: MAASDLESKAKEAFVDDDFELAAELYTQAIDAGPATADLYADRAQAHIKLGNYTEAVADANKAIGLDPTMHKAYYRKGAACIKLEEYQTAKAALELGSSYAPGDSRFTRLLKECDECIAEESSQAPAKNVEAPVAATVEDKEDVANMDNTPPVVEPPSKPKYRHDYYNSATEVVLTIYAKGVPADSVVIDFGDQMLSVSIEVPGEEPYHFQPRLFSKIIPEKCKYQVLSTKVEIRLAKAEQVTWTTLDYSGRPKAIPQKISTPAETAPRPSYPSSKSKKDWDKLEAEVKKEEKEEKLEGDAALNKFFRDIYKDADEDMRRAMDKSFRESNGTVLSTNWKDVGSKTVEASPPDGMELKKWEI

Assays:
[1] = molecular target: UmSee1-TurboID-3HA (Ustilago maydis); experiment: affinity purification with mass spectrometry; anti-HA magnetic beads on native extracts of maize leaves 3 dpi with U. maydis secreting UmSee1-TurboID-3HA; control mCherry-TurboID-3HA; 4 °C, 3 h; on-bead digestion, LC-MS/MS, label-free quantification
[2] = molecular target: UmSee1-TurboID-3HA (Ustilago maydis); experiment: as above; remark: listed apart in the source

Row | Molecule | binding [1] | binding [2]
1 | ZmSIP2 (Zea mays See1-interacting protein 2), endogenous (from UniProt A0A1D6G9Q0) | binds | –
2 | B1 | – | binds
